According to article PMC3005887 (Research letters in biochemistry, 2009):
Changes are numbered by the printed parent chain. Results are given in words; binding and its absence hold for the method and conditions named. Tags and fused reporters may be left off the sequences shown.

Protein sequences, listed by entry. Tags and fused reporters are not part of them. Residues count along the entry.
UniProt P49951, residues 1074-1675: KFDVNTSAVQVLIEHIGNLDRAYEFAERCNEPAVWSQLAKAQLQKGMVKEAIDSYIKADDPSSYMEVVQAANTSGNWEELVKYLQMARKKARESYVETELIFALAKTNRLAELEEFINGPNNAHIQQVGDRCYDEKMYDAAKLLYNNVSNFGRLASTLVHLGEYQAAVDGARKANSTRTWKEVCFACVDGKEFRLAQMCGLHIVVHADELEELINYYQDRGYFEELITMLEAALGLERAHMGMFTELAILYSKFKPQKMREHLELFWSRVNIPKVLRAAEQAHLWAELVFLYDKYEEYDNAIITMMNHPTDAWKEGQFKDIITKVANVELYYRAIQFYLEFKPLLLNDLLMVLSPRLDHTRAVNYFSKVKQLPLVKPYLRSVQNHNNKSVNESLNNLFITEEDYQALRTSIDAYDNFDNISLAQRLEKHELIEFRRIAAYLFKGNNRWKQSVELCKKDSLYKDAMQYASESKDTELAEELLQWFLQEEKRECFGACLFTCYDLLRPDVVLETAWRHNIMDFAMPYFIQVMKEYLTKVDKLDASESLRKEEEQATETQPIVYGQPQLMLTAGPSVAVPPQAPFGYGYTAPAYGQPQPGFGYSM

Key:
[1] = biological target: T1, GST-HIP1h (aa370-644) K494E/R500E double mutant (human) (UniProt O00291); experiment: pull-down; GST or GST-HIP1h on glutathione Sepharose 4B beads; 6HisLCb and hub premixed 3:1 at 4 C for at least 30 min; 0.4 nmol hub alone or 1.9 nmol hub/6HisLCb complex; binding buffer 50 mM Tris, 200 mM KCl, 1 mM EDTA, 1% Triton X-100, 50 mM imidazole, 0.5 mg/ml ovalbumin, pH 8.0; 4 C, 1 hour; Western blot (anti-His, CON.1, anti-GST); both purified
T1 sequence: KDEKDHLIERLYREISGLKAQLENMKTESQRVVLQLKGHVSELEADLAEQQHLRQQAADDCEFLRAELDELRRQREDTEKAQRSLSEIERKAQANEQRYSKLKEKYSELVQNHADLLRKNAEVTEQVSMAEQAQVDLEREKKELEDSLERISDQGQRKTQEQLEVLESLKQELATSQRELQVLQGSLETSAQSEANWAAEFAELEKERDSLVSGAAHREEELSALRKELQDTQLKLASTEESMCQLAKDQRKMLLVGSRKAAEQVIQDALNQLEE

[2] = biological target: T2, GST-HIP1h (Huntingtin-interacting protein 1, aa370-644), wild type (human) (UniProt O00291); experiment: as above
T2 sequence: T1 sequence with E125K, E131R

| Substance | binding [1] | binding [2] |
| --- | --- | --- |
| 6Hishub/6HisLCb (clathrin hub with bound clathrin light chain b) (from UniProt P49951 1074-1675; P04975 1-228) (complex) | no binding (tested: 1.9 nmol of Hub 6HisLCb complex) | – |
| 6Hishub alone (clathrin hub, bovine clathrin heavy chain aa1074-1675, no bound LCb) (from UniProt P49951 1074-1675) (domain or fragment) | – | no binding (tested: 0.4 nmol of Hub Alone) |
